## Screening data

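Tests whether compounds block coactivator recruitment by the ligand-activated VDR ligand-binding domain, using polarization of Texas Red emission near 615 nm after a two-hour incubation.
Five-point series from about 0.09 to 57 µM.
Potency is the fitted concentration giving half of the maximal inhibition; a lower value means a stronger inhibitor.
Calls follow a score built from curve class and fitted potency, where 0 is inactive, 1–39 inconclusive and 40–100 active; every row here is inconclusive, across full, partial and single-point curves.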

Values are in µM.
All entries here are filed as inconclusive.
Only part of the assay is shown, chiefly results filed as inconclusive.
Potencies fitted to partial, single-point or poorly fitting curves are rough.
Some entries filed as inconclusive have a full curve.
Activity scores are not listed here.

| # | compound | tested on / at | fitted potency (µM) | remark |
|---|---|---|---|---|
| 1 | `COc1ccc(CS(=O)/C(Cl)=C(/Cl)C(=O)Nc2ccc(OC)nc2)cc1` (stereo not drawn) | agonist-bound VDR ligand-binding domain | 5.012 | inhibitor, partial curve, poor fit |
| 2 | `O=C(/C=C/c1ccccc1)n1cnnc1SC/C=C/c1ccccc1` | agonist-bound VDR ligand-binding domain | 1.778 | inhibitor, full curve, poor fit |
| 3 | `COc1ccc([N+](=O)[O-])c(S(=O)(=O)c2ccccc2)n1` | agonist-bound VDR ligand-binding domain | 1.778 | inhibitor, full curve, poor fit |
| 4 | `CCOc1cc(C(Nc2cc(C)ccn2)c2ccc3cccnc3c2O)ccc1OC` (stereo not drawn) | agonist-bound VDR ligand-binding domain | 39.81 | inhibitor, single point |
| 5 | `CCOC(=O)c1sc(=S)n(-c2cc(OC)ccc2OC)c1N` | agonist-bound VDR ligand-binding domain | 3.548 | inhibitor, full curve |
| 6 | `CC(=O)Nc1ccc(C2=NNC(=Nc3cccc(S(=O)(=O)N(C)C)c3)SC2)cc1` | agonist-bound VDR ligand-binding domain | 11.22 | inhibitor, partial curve |
| 7 | `Cc1ccc(Oc2c(C(N)=O)cc([N+](=O)[O-])cc2[N+](=O)[O-])cc1` | agonist-bound VDR ligand-binding domain | 3.981 | inhibitor, full curve |
| 8 | `COc1ccc(C(=O)/C=C/Sc2nc3ccccc3o2)cc1` | agonist-bound VDR ligand-binding domain | 1.778 | inhibitor, full curve |
| 9 | `C=CCSc1nc2sc3c(c2c(=O)n1CC)CCc1ccccc1-3` | agonist-bound VDR ligand-binding domain | 1.995 | inhibitor, full curve, poor fit |
| 10 | `COc1cc(/C=C2/N=C(C3CCCCC3)OC2=O)cc(OC)c1OC` | agonist-bound VDR ligand-binding domain | 6.31 | inhibitor, full curve |
| 11 | `O=[N+]([O-])c1ccc(/C=C2\CCC(C3=CCCC3)=C2N2CCOCC2)cc1` | agonist-bound VDR ligand-binding domain | 28.18 | inhibitor, single point |
| 12 | `COc1ccc2nc(S(=O)Cc3ncc(C)c(OC)c3C)[nH]c2c1` (stereo not drawn) | agonist-bound VDR ligand-binding domain | 3.162 | inhibitor, partial curve |
| 13 | `C=CCN1C(=O)/C(=N/n2cnnc2)c2ccccc21` | agonist-bound VDR ligand-binding domain | 12.59 | inhibitor, partial curve, poor fit |
| 14 | `O=C1CCCC2=C1C1(O)C(=O)c3ccccc3C1(O)O2` (stereo not drawn) | agonist-bound VDR ligand-binding domain | 7.08 | inhibitor, partial curve |
| 15 | `O=C(CSC1=NS(=O)(=O)c2ccccc21)Nc1ccccc1` | agonist-bound VDR ligand-binding domain | 3.162 | inhibitor, single point |
| 16 | `O=C1ON=C(c2ccccc2)/C1=C/c1ccccc1` | agonist-bound VDR ligand-binding domain | 3.162 | inhibitor, full curve, poor fit |
| 17 | `CCOC(=O)c1sc(N)c(C(=O)Nc2ccccc2OC)c1C` | agonist-bound VDR ligand-binding domain | 5.012 | inhibitor, single point |
| 18 | `CCOc1cc(/C=C2\N=C(C)OC2=O)cc(Cl)c1OCC(=O)OC` | agonist-bound VDR ligand-binding domain | 2.818 | inhibitor, partial curve, poor fit |
| 19 | `CCOC(=O)c1sc(NC(=O)c2ccncc2)c(C#N)c1C` | agonist-bound VDR ligand-binding domain | 5.012 | inhibitor, partial curve, poor fit |
| 20 | `CC(=O)Nc1sc(N/N=C\c2ccccc2)nc1-c1cccs1` | agonist-bound VDR ligand-binding domain | 3.548 | inhibitor, partial curve |
| 21 | `N#CC(C#N)=NNc1ccc(S(=O)(=O)N2CCCCC2)cc1` | agonist-bound VDR ligand-binding domain | 1.778 | inhibitor, partial curve, poor fit |
| 22 | `CCOc1ccc(C(=O)CC(C(=O)O)N2CCN(Cc3ccccc3)CC2)cc1` (stereo not drawn) | agonist-bound VDR ligand-binding domain | 10 | inhibitor, partial curve, poor fit |
| 23 | `O=C(/C=C/c1ccc(Cl)cc1)c1cccnc1` | agonist-bound VDR ligand-binding domain | 1.995 | inhibitor, full curve |
| 24 | `CCc1ccc(C(=O)/C=C/c2ccc([N+](=O)[O-])o2)cc1` | agonist-bound VDR ligand-binding domain | 3.981 | inhibitor, full curve, poor fit |
| 25 | `O=C(Oc1csc(=S)n1C(=O)c1ccccc1)c1ccccc1` | agonist-bound VDR ligand-binding domain | 3.981 | inhibitor, single point |
| 26 | `CC(C)(C)c1cc(C(c2cccnc2)N2CCN(CCO)CC2)cc(C(C)(C)C)c1O` (stereo not drawn) | agonist-bound VDR ligand-binding domain | 3.162 | inhibitor, full curve |
| 27 | `COc1ccc(N=Cc2nc(-c3ccccc3)oc2OC(=O)c2ccccc2)cc1` | agonist-bound VDR ligand-binding domain | 2.239 | inhibitor, partial curve, poor fit |
| 28 | `Cc1ccc(S(=O)(=O)Nc2ccc(O)c3ccccc23)c(C)c1` | agonist-bound VDR ligand-binding domain | 3.981 | inhibitor, full curve, poor fit |
| 29 | `CCOC(=O)/C(=C\c1ccc(Cl)cc1)c1nc2sc(C)c(C)c2c(=O)[nH]1` | agonist-bound VDR ligand-binding domain | 3.548 | inhibitor, partial curve, poor fit |
| 30 | `O=C(Nc1cccc(S(=O)(=O)Nc2ccccc2F)c1)c1ccc2ccccc2n1` | agonist-bound VDR ligand-binding domain | 1.995 | inhibitor, partial curve, poor fit |
| 31 | `CCOC(=O)c1c(NC(=O)c2ccco2)n(C2CCCCC2)c2nc3ccccc3nc12` | agonist-bound VDR ligand-binding domain | 2.818 | inhibitor, full curve |

For reference, 2 entries once more:

{"compound": "COc1cc(/C=C2/N=C(C3CCCCC3)OC2=O)cc(OC)c1OC", "tested on / at": "agonist-bound VDR ligand-binding domain", "fitted potency (µM)": "6.31", "remark": "inhibitor, full curve"}
{"compound": "Cc1ccc(Oc2c(C(N)=O)cc([N+](=O)[O-])cc2[N+](=O)[O-])cc1", "tested on / at": "agonist-bound VDR ligand-binding domain", "fitted potency (µM)": "3.981", "remark": "inhibitor, full curve"}

Data taken from PubChem BioAssay AID602201, deposited by NCATS (2012).